Source: PubChem BioAssay AID652243 (Drosophila RNAi Screening Center, 2013)
The deposit covers about 24,000 reagents; shown is an unselected part of those with a known target gene and a result. Of all reagents, 246 (1%) are marked active. 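Plates not normalised; calls are printed but the firefly/Renilla ratio behind them is not deposited; fold cut for lowering reported inconsistently.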 Raw values vary from plate to plate and are shown uncorrected. Reagents against one gene are numbered here. Not given: the amount of reagent.

Assay: 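Fly regulators of androgen-dependent reporter output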 (primary screen)
Cell system: Drosophila S2R+ cells
Reagents: long dsRNA against Drosophila genes
Timing: 72 h (48 h, then 24 h hormone)
Treatment: synthetic androgen R1881 at 10 nM for 24 h
Measurement: 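Per-well raw luminescence of the androgen-driven firefly reporter and of the Renilla control, two replicates each, without normalisation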
Direction: firefly reporter light: higher = more light from androgen-responsive reporter; Renilla control light: higher = more constitutive control signal (cell number, transfection)
Active means: 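Hit when the log firefly-to-Renilla ratio dropped or increased by a fixed fold versus the mean of GFP or LacZ controls across duplicate plates; lowering cut given as 1.5 and as 3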
Meaning of the calls: active = hit: reporter lowered or raised; inactive = no hit

Vha68-3 #1
- firefly reporter light, replicate 1: 2.14e5
- firefly reporter light, replicate 2: 2.37e5
- Renilla control light, replicate 1: 1.50e6
- Renilla control light, replicate 2: 1.64e6
- call: inactive

Vha68-3 #2
- firefly reporter light, replicate 1: 8.88e5
- firefly reporter light, replicate 2: 9.87e5
- Renilla control light, replicate 1: 7.31e5
- Renilla control light, replicate 2: 9.89e5
- call: inactive

FBXO11
- firefly reporter light, replicate 1: 49558
- firefly reporter light, replicate 2: 28513
- Renilla control light, replicate 1: 2.99e5
- Renilla control light, replicate 2: 3.26e5
- call: inactive

Itgbn
- firefly reporter light, replicate 1: 1.63e5
- firefly reporter light, replicate 2: 1.58e5
- Renilla control light, replicate 1: 9.80e5
- Renilla control light, replicate 2: 1.63e6
- call: inactive

CG9004
- firefly reporter light, replicate 1: 73816
- firefly reporter light, replicate 2: 99543
- Renilla control light, replicate 1: 1.17e6
- Renilla control light, replicate 2: 1.63e6
- call: inactive

Cpr23B
- firefly reporter light, replicate 1: 5.63e5
- firefly reporter light, replicate 2: 7.10e5
- Renilla control light, replicate 1: 7.25e5
- Renilla control light, replicate 2: 7.88e5
- call: inactive

CG31465 #1
- firefly reporter light, replicate 1: 77624
- firefly reporter light, replicate 2: 87357
- Renilla control light, replicate 1: 7.43e5
- Renilla control light, replicate 2: 6.54e5
- call: inactive

CG31465 #2
- firefly reporter light, replicate 1: 3.08e5
- firefly reporter light, replicate 2: 2.00e5
- Renilla control light, replicate 1: 6.88e5
- Renilla control light, replicate 2: 6.72e5
- call: inactive

2 of these entries in another layout:
gene knocked down	reagent no.	firefly reporter light, replicate 1	firefly reporter light, replicate 2	Renilla control light, replicate 1	Renilla control light, replicate 2	call
CG31465	1	77624	87357	7.43e5	6.54e5	inactive
CG31465	2	3.08e5	2.00e5	6.88e5	6.72e5	inactive

Additional results follow.
eg #1
- firefly reporter light, replicate 1: 1.89e5
- firefly reporter light, replicate 2: 2.76e5
- Renilla control light, replicate 1: 3.11e6
- Renilla control light, replicate 2: 3.11e6
- call: inactive

eg #2
- firefly reporter light, replicate 1: 3.26e5
- firefly reporter light, replicate 2: 3.06e5
- Renilla control light, replicate 1: 6.47e5
- Renilla control light, replicate 2: 6.46e5
- call: inactive

CG13659 #1
- firefly reporter light, replicate 1: 2.29e5
- firefly reporter light, replicate 2: 2.78e5
- Renilla control light, replicate 1: 2.25e6
- Renilla control light, replicate 2: 2.91e6
- call: inactive

CG13659 #2
- firefly reporter light, replicate 1: 7.95e5
- firefly reporter light, replicate 2: 9.45e5
- Renilla control light, replicate 1: 1.28e6
- Renilla control light, replicate 2: 1.28e6
- call: inactive

TwdlZ
- firefly reporter light, replicate 1: 6.63e5
- firefly reporter light, replicate 2: 6.88e5
- Renilla control light, replicate 1: 5.82e5
- Renilla control light, replicate 2: 3.75e5
- call: inactive

nesd #1
- firefly reporter light, replicate 1: 1.06e6
- firefly reporter light, replicate 2: 9.89e5
- Renilla control light, replicate 1: 1.83e6
- Renilla control light, replicate 2: 2.07e6
- call: inactive

nesd #2
- firefly reporter light, replicate 1: 3.46e5
- firefly reporter light, replicate 2: 2.66e5
- Renilla control light, replicate 1: 7.11e5
- Renilla control light, replicate 2: 7.91e5
- call: inactive

Tmem131
- firefly reporter light, replicate 1: 1.55e6
- firefly reporter light, replicate 2: 1.10e6
- Renilla control light, replicate 1: 2.01e6
- Renilla control light, replicate 2: 1.26e6
- call: inactive

CG12992
- firefly reporter light, replicate 1: 4.36e5
- firefly reporter light, replicate 2: 3.54e5
- Renilla control light, replicate 1: 2.82e6
- Renilla control light, replicate 2: 2.20e6
- call: inactive

Rab6 #1
- firefly reporter light, replicate 1: 6.82e5
- firefly reporter light, replicate 2: 7.50e5
- Renilla control light, replicate 1: 1.40e6
- Renilla control light, replicate 2: 1.39e6
- call: inactive

Rab6 #2
- firefly reporter light, replicate 1: 3.58e5
- firefly reporter light, replicate 2: 2.42e5
- Renilla control light, replicate 1: 6.00e5
- Renilla control light, replicate 2: 3.27e5
- call: inactive

CG3280 (retired record)
- firefly reporter light, replicate 1: 2.94e5
- firefly reporter light, replicate 2: 2.02e5
- Renilla control light, replicate 1: 2.26e6
- Renilla control light, replicate 2: 1.93e6
- call: inactive

CG12490
- firefly reporter light, replicate 1: 2.48e5
- firefly reporter light, replicate 2: 3.10e5
- Renilla control light, replicate 1: 2.01e6
- Renilla control light, replicate 2: 1.70e6
- call: inactive
